Data source: PubChem BioAssay AID493246 (Drosophila RNAi Screening Center, 2011)
Aim: 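Identify essential fly genes by loss of cell viability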 (primary screen). Cells: Drosophila Kc and S2R+ cells. Reagents: long dsRNA against Drosophila genes. Detection: 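Raw, unnormalised count of remaining cells in each well; per-plate z-scores of cell number underlie the calls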. Reading the numbers: Kc cell number and S2R+ cell number: higher = more cells remaining. Rule for the call: 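Counted as a hit if cell number falls by a z-score of at least 3 within its plate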.
In all, the deposit lists about 21,000 reagents; below is an unselected part of those that have a named target and a result. Of all reagents, 429 (2%) are marked active. 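Values are raw and not normalised between plates; calls rest on per-plate z-scores that were not deposited.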 The record does not give: the amount of reagent, the time to read-out.

With knock-down of CG12766 [DRSC08295] the results were Kc cell number, rep 1 = 1.60e6; Kc cell number, rep 2 = 1.47e6; S2R+ cell number, rep 1 = 1.02e6; S2R+ cell number, rep 2 = 1.20e6; inactive.
After knock-down of Mcad [DRSC09871] the results were Kc cell number, rep 1 = 1.38e6; Kc cell number, rep 2 = 1.53e6; S2R+ cell number, rep 1 = 1.27e6; S2R+ cell number, rep 2 = 1.11e6; inactive.
Lime [DRSC06752] scored Kc cell number, rep 1 = 1.99e6; Kc cell number, rep 2 = 1.95e6; S2R+ cell number, rep 1 = 1.44e6; S2R+ cell number, rep 2 = 1.78e6; inactive.
spdo [DRSC13988] gave Kc cell number, rep 1 = 1.48e6; Kc cell number, rep 2 = 1.67e6; S2R+ cell number, rep 1 = 1.05e6; S2R+ cell number, rep 2 = 1.11e6; inactive.
Knock-down of CG12784 [DRSC14539] gave: Kc cell number, rep 1 = 1.46e6; Kc cell number, rep 2 = 1.52e6; S2R+ cell number, rep 1 = 1.21e6; S2R+ cell number, rep 2 = 1.35e6; inactive.
Depletion of Mal-A4 [DRSC07236] came out at: Kc cell number, rep 1 = 1.52e6; Kc cell number, rep 2 = 1.52e6; S2R+ cell number, rep 1 = 1.29e6; S2R+ cell number, rep 2 = 1.46e6; inactive.
For indra [DRSC08558], the entry reads Kc cell number, rep 1 = 1.33e6; Kc cell number, rep 2 = 1.40e6; S2R+ cell number, rep 1 = 1.18e6; S2R+ cell number, rep 2 = 1.17e6; inactive.
xmas [DRSC21306] scored Kc cell number, rep 1 = 1.62e6; Kc cell number, rep 2 = 1.67e6; S2R+ cell number, rep 1 = 9.84e5; S2R+ cell number, rep 2 = 1.19e6; inactive.
Depletion of Pld [DRSC04854] gave: Kc cell number, rep 1 = 1.29e6; Kc cell number, rep 2 = 1.38e6; S2R+ cell number, rep 1 = 1.18e6; S2R+ cell number, rep 2 = 1.20e6; inactive.
For Lcp1 [DRSC07455], the entry reads Kc cell number, rep 1 = 1.44e6; Kc cell number, rep 2 = 1.80e6; S2R+ cell number, rep 1 = 1.23e6; S2R+ cell number, rep 2 = 1.39e6; inactive.
For Cpr35B [DRSC01949], the values are Kc cell number, rep 1 = 1.60e6; Kc cell number, rep 2 = 1.69e6; S2R+ cell number, rep 1 = 1.11e6; S2R+ cell number, rep 2 = 1.17e6; inactive.
Knock-down of eIF4B [DRSC20983] resulted in: Kc cell number, rep 1 = 1.54e6; Kc cell number, rep 2 = 1.43e6; S2R+ cell number, rep 1 = 9.94e5; S2R+ cell number, rep 2 = 1.09e6; inactive.

2 of these entries in another layout.
{"gene":"Lime","dsRNA":"DRSC06752","Kc cell number, rep 1":1.99e6,"Kc cell number, rep 2":1.95e6,"S2R+ cell number, rep 1":1.44e6,"S2R+ cell number, rep 2":1.78e6,"outcome":"inactive"}
{"gene":"spdo","dsRNA":"DRSC13988","Kc cell number, rep 1":1.48e6,"Kc cell number, rep 2":1.67e6,"S2R+ cell number, rep 1":1.05e6,"S2R+ cell number, rep 2":1.11e6,"outcome":"inactive"}
